Data as given in patent publication US20040034045A1, “Inhibitors of thrombin induced platelet aggregation” (Parker Hughes Institute, priority 2000, published 2004).
For at least one compound, name, drawing or mass did not settle the structure.

Tests used:
[1] = system: collagen-induced platelet aggregation; test: Collagen-induced platelet aggregation; assay type: cell-based, human; conditions: FIG. 7D
human platelets = test: HR-LVSEM and TEM of thrombin-induced platelet shape change; assay type: cell-based; conditions: 100 μM, thrombin 0.1 U/mL
[2] = system: STAT1 and STAT3 tyrosine phosphorylation; test: Western blot of thrombin-induced tyrosine phosphorylation of STAT1 and STAT3 in platelets; assay type: cell-based, human
platelets [3] = test: Cytoskeletal fractionation: thrombin-induced translocation to TX-100 insoluble fraction; assay type: cell-based, human; conditions: 100 μM, 30 minutes, thrombin 0.1 U/mL
[4] = system: thromboplastin-induced thromboembolism; test: Thromboplastin-induced thromboembolism model; assay type: in vivo; conditions: mice, 25 mg/kg thromboplastin challenge
Procedure: Mice (4-6 week old males, International Cancer Research (IRC)) were treated […] with 200 μL of vehicle (PBS supplemented with 10% DMSO), varying doses of WH-P131 in 200 μL of vehicle (administered intraperitoneally (i.p.) 30 minutes prior to the thromboplastin challenge). The mice were challenged with 25 mg/kg thromboplastin (Sigma, St. Louis, Mo.) via a bolus intravenous injection into the tail vein as previously described (Sato, et.al., 1998 Jpn J. Pharmacol 78(2), 191-7).
At the time of thromboembolism-related death after the thromboplastin injection or elective sacrifice at 48 hours using ketamine/xylazine, all mice were perfused with PBS followed by 4% phosphate buffered formalin. PBS and formalin were pumped through the left ventricle of the heart and allowed to exit through a 3 mm incision through the anterior wall of the right ventricle. During necropsy, several selected tissues (brain, heart, liver, lungs) were harvested, fixed in 10% neutral buffered formalin, dehydrated, and embedded in paraffin by routine methods for histopathologic examination. Glass slides with affixed 6 micron tissue sections were prepared and stained with hemotoxylin and eosin (H&E) or Masson's trichrome.

platelets [5] = test: Serotonin release from thrombin-stimulated platelets; assay type: cell-based, human; conditions: thrombin 0.1 U/mL
Procedure: Release of serotonin from thrombin (0.1 U/mL)-stimulated platelets was measured using a serotonin detection kit (Immunotech, Marseille, France) according to the manufacturer's specifications. Sonnicated platelets were used for measurement of the total serotonin content of platelets.

## COc1cc2ncnc(Nc3ccc(O)cc3)c2cc1OC [WHI-P131, 4-(4′-Hydroxyphenyl)-amino-6,7-dimethoxyquinazoline]
[1]
  effect on collagen-induced platelet aggregation: but not collagen
Human platelets
  pseudopods and granule distribution after thrombin stimulation (TEM): no pseudopods were observed and the granules remained uniformly dispersed
  thrombin-induced membrane ruffling and pseudopod formation (HR-LVSEM): inhibited
[2]; human platelets, 100 micromolar, 0.1 U/mL thrombin
  thrombin-induced tyrosine phosphorylation of STAT1 and STAT3: abolished
[2]; whole cell lysates, 0.1 U/ml thrombin
  thrombin induced STAT3β tyrosine phosphorylation and overall tyrosine phosphorylation: inhibited
Platelets [3]
  thrombin-induced relocalization of SYK, tubulin, JAK3, STAT1, STAT3 to the TX-100 insoluble fractions: prevented
[4]
  median survival time versus vehicle (2.5 minutes): more than doubled
Platelets [5]
  amount of serotonin secreted after thrombin challenge (platelet degranulation): markedly reduced
